Results: US20040191172A1, “Preventive or therapeutic agents for dermatitis or alopecia, evaluation method of the agents, and transgenic mouse” (priority 2003, published 2004)
For at least one compound, name, drawing or mass did not settle the structure.

Tested on: K5/IL-18 Tg (+) mice
Test: Suppression of spontaneous dermatitis in K5/IL-18 transgenic (Tg (+)) mice, appearance and HE histopathology of back skin
Type: in vivo
Conditions: for dermatitis, observation of the appearance: Tg (+) mice within three days after birth, 1% (10 mg/mL) in 100 μL 0.5% CMC-Na/PBS applied to back skin for consecutive seven days, 10 days after birth
From the text: The spontaneous dermatitis (A) refers to an inflammation that reaches its peak approximately on the 8th to 12th day after birth of an IL-18-introduced mouse and disappears after about four weeks and that has been identified by the inventors of the present invention for the first time. Pathologically speaking, in this inflammation, acanthosis (epidermal thickening) , hyperkeratosis, and inflammatory cell infiltrations that neutrophilic leukocytes are contained in dermis can be observed in dermal tissue, a slight sponge state is present in the epidermal base, and abscess formation in the cuticle due to epidermal neutrophilic infiltrations is observed (FIG. 3).
The evaluation method of the present invention can be performed as a method for screening agents for preventing/treating autoimmune dermatitis. The screening can be performed, for example, by the procedures of administrating an agent to be tested in either stage, before or after the occurrence of the peak of spontaneous dermatitis, and comparing mice without administration (control) in terms of the presence or the absence of peak occurrence, the size of the peak, the speed of peak disappearance or the like.
Next, the agent of preventing/treating dermatitis of the present invention will be described more specifically by way of examples. Five to seven mice were grouped into one group, and agents to be tested of examples, comparative examples, reference examples or the like were administered to each group.
[A]control rabbit IgG antibody (Sigma) in an amount of 2 mg or [B] anti-asialo GM1 antibody (Wako) in an amount of 2 mg that was dissolved in 0.1 mL of PBS was administered intraperitoneally to K5/IL-18 Tg (IL-18 transgene (+); hereinafter, referred to as “Tg (+)”) mice within one day after birth.
Ten days after the administration of the antibodies, the skins of the backs of the mice of the two groups A and B was obtained, and fixed in 20% buffered formalin. The dermatitis was histopathologically examined by HE staining. […]

| Structure (SMILES) | dermatitis, observation of the appearance | cuticle thickening, histopathology (HE staining) of back skin (Tg (+) mice, 1% (10 mg/mL) applied to back skin for consecutive seven days) |
| --- | --- | --- |
| C[C@@H]1C[C@H]2[C@@H]3CCC4=CC(=O)C=C[C@]4(C)[C@@]3(F)[C@@H](O)C[C@]2(C)[C@@]1(O)C(=O)CO [dexamethasone] | dermatitis was suppressed | almost not suppressed |
| C=CC[C@@H]1/C=C(\C)C[C@H](C)C[C@H](OC)[C@H]2O[C@@](O)(C(=O)C(=O)N3CCCC[C@H]3C(=O)O[C@H](/C(C)=C/[C@@H]3CC[C@@H](O)[C@H](OC)C3)[C@H](C)[C@@H](O)CC1=O)[C@H](C)C[C@@H]2OC [FK506] | dermatitis was suppressed |  |
